Measurements from PubChem BioAssay AID1347075 (National Center for Advancing Translational Sciences (NCATS), 2019).
About 5,500 (1.4%) of roughly 400,000 compounds were called active. This list was built around the results that the source calls inconclusive (neither active nor inactive); the mix of calls is not that of the screen. Calls follow the shape of the dose curve; as a rule, active = well fitted cell-killing curve with a large enough effect; inconclusive = small, poorly fitted or top-dose-only effect, or effect the other way; inactive = flat fitted curve, though single readings scatter. Potencies beside an inconclusive call are fits to weak or partial responses and may not hold up.

Test: qHTS assay for MDR1-selective chemotherapeutics: Primary screen using the parental adenocarcinoma cell KB-3-1; also: nearly all actives have a fitted effect of over 60% in size
Details: KB-3-1 viability, CellTiter-Glo ATP luminescence, 72 h; activity change, negative = cytotoxic: at 46.1 µM (top of the series)
In short: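 KB-3-1 parental drug-naive adenocarcinoma cells in DMEM/10% FBS, incubated 72 h at 37 C with pin-transferred compounds across a concentration series. Viability by CellTiter-Glo luminescence; concentration-response curves fitted after normalization.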
% is scaled to controls: 0 for no effect and ±100 for the full control effect; potency is read from the fitted curve at half-maximal effect.

Row | SMILES | activity change, negative = cytotoxic | Potency
1 | Cn1nnnc1SCc1nc2scc(-c3ccc(Cl)cc3)c2c(=O)[nH]1 | inactive: 0% | –
2 | CN(C)/C=C(\C#N)C(=O)N/N=C(\CC(=O)C(F)(F)F)c1ccco1 | inactive: 19% | –
3 | Cc1ccc(NC(=O)C2CCCN(S(=O)(=O)c3c(C)nn(C)c3C)C2)c(C)c1 (configuration not stated) | inactive: -2.71% | –
4 | CCc1nc2ccccc2c(=O)n1NC(=O)c1c(O)c2ccccc2[nH]c1=O | – | inconclusive: 29.1 µM [cytotoxic, single point]
5 | COc1ccc(C(=O)O)cc1S(=O)(=O)Nc1cc(C(F)(F)F)ccc1N1CCCCC1 | – | inconclusive: 10.3 µM [rising, single point]
6 | CC(=O)Nc1cccc(-c2ccnc3c2CC(C(=O)Nc2cccc(N(C)C)c2)O3)c1 (configuration not stated) | – | inconclusive: 29.1 µM [cytotoxic, single point]
7 | C=CCn1c(=O)c(C(=O)NCc2ccccc2Cl)c(O)c2ccccc21 | – | inconclusive: 20.6 µM [cytotoxic, single point]
8 | Cc1nc(NC(=O)c2cccc(-c3cc4ccccc4oc3=O)c2)ccc1Br | – | inconclusive: 25.9 µM [cytotoxic, single point]
9 | Cc1csc(NC(=O)c2ccc(S(=O)(=O)N(C)c3ccccc3)cc2)n1 | – | inconclusive: 13 µM [cytotoxic, single point]
10 | CCCn1c(SCC(=O)Nc2nnc(C(C)C)s2)nc2c1c(=O)n(C)c(=O)n2C | – | active: 13 µM
11 | O=C(Nc1nc2ccccc2[nH]1)c1ccccc1F | – | inconclusive: 14.6 µM [cytotoxic, partial curve, poor fit]
12 | Cc1cc(C)n(CCC(=O)N/N=C/c2ccc(Br)c([N+](=O)[O-])c2)n1 | – | inconclusive: 29.1 µM [rising, single point]
13 | CC1CN(C(=O)N2c3ccccc3Sc3ccccc32)CC(C)O1 (configuration not stated) | inactive: 0% | –
14 | Cc1ccccc1CSc1nc2ccccc2c(=O)n1C | – | inconclusive: 20.6 µM [cytotoxic, partial curve]
15 | Cc1cc(Br)ccc1OCCCCN1CCCCC1 | inactive: -8.79% | –
16 | Cc1cc(-n2c(C)cc(C(=S)N3CCOCC3)c2C)ccc1Br | – | inconclusive: 5.8 µM [cytotoxic, partial curve]
17 | Cc1cc(Nc2cccc(C(F)(F)F)c2)nc2ccc(NC(=O)c3cccnc3)cc12 | – | inconclusive: 18.4 µM [cytotoxic, single point]
18 | CN(c1cccc(NC(=O)CN(c2cccc(Cl)c2)S(=O)(=O)c2ccccc2)c1)S(C)(=O)=O | – | inconclusive: 23.1 µM [cytotoxic, single point]
19 | COc1ccccc1OCCCn1c(C)c(C#N)c2ccccc21 | – | inconclusive: 29.1 µM [cytotoxic, single point]
20 | COc1nccnc1NS(=O)(=O)c1ccc(N=Cc2c(C)[nH]n(-c3ccc(C)c(C)c3)c2=O)cc1 | – | inconclusive: 7.31 µM [cytotoxic, partial curve, poor fit]
21 | CCN(CC)CCNC(=O)C(C)c1nn(CC)c(=O)c2ccccc12 (configuration not stated) | inactive: 0.648% | –

Row | SMILES | activity change, negative = cytotoxic | Potency
22 | Cc1nn(CCCC(=O)NCc2ccc(Cl)cc2)c(C)c1[N+](=O)[O-] | inactive: 4.97% | –
23 | CCOc1ccc(N(C(=O)c2ccc(OC)cc2)S(=O)(=O)c2ccc3c(c2)n(C)c(=O)n3C)cc1 | – | inconclusive: 29.1 µM [cytotoxic, single point]
24 | Clc1ccc(CN(CCCNc2ncnc(NCCCc3cnc[nH]3)n2)c2ccc(Br)cn2)cc1Cl | – | inconclusive: 29.1 µM [cytotoxic, single point]
25 | O=C(Nc1ccc(C(F)(F)F)cc1)C1=NN(C2CCS(=O)(=O)C2)C(=O)CC1 (configuration not stated) | – | inconclusive: 6.51 µM [cytotoxic, partial curve]
26 | COc1cccc2cc(/C(C)=N/Nc3nc(-c4cc(C)ccc4C)cs3)c(=O)oc12 | – | inconclusive: 29.1 µM [cytotoxic, single point]
27 | N#C/C(=C/c1ccc(N2CCCCCC2)o1)c1ccc(F)cc1 | – | inconclusive: 23.1 µM [cytotoxic, single point]
28 | Cc1ccc2nc(SCC(=O)NC3CCCc4ccccc43)[nH]c2c1 (configuration not stated) | – | inconclusive: 29.1 µM [cytotoxic, single point]
29 | O=C1CC(c2ccc(F)cc2)Cc2nc(N3CCOCC3)ncc21 (configuration not stated) | inactive: -6.58% | –
30 | C[C@H](CO)N1C[C@H](C)[C@@H](CN(C)S(=O)(=O)c2ccccc2)Oc2c(NC(=O)Nc3ccc(C(F)(F)F)cc3)cccc2C1=O | – | inconclusive: 29.1 µM [cytotoxic, single point]
31 | CN(C)c1ccc(CC2CCc3ccccc32)cc1 (configuration not stated) | inactive: -6.17% | –
32 | O=C(CN1CCCSc2ccccc21)N1CCN(S(=O)(=O)c2cccc(F)c2)CC1 | – | inconclusive: 29.1 µM [cytotoxic, single point]
33 | CC(=O)C1=C(O)C(=O)N(c2ccc(Br)cn2)C1c1ccc(Br)cc1 (configuration not stated) | – | active: 3.66 µM
34 | CC1CC(C)CN(c2ccc(-n3cnnn3)cc2[N+](=O)[O-])C1 (configuration not stated) | – | active: 5.17 µM
35 | CN(C)c1ccc(/C=N/NC(=O)c2cc(-c3ccc4c(c3)OCO4)n[nH]2)cc1 | – | inconclusive: 16.4 µM [cytotoxic, single point]
36 | CSCCC(NC(=O)c1ccccc1Cl)C(=O)N1CCN(c2ccccn2)CC1 (configuration not stated) | – | inconclusive: 11.6 µM [rising, partial curve, poor fit]
37 | COc1ccc(-n2ccnc2SCC(=O)NCc2ccccc2)c(OC)c1 | – | inconclusive: 29.1 µM [rising, single point]
38 | Cc1cc(-c2ccccc2)n2nc(C)c(-c3ccccc3)c2n1 | – | inconclusive: 23.1 µM [cytotoxic, single point]
39 | COc1ccc(CCNC(=O)CSCC(=O)Nc2ccccc2)cc1OC | inactive: 3.45% | –
40 | COCC(=O)O[C@]1(CCN(C)CCCc2nc3ccccc3[nH]2)CCc2cc(F)ccc2[C@@H]1C(C)C | – | inconclusive: 29.1 µM [cytotoxic, single point]
41 | O=C(Cc1ccc(Cl)cc1)NCC(=O)N1CCN(c2ccccc2)CC1 | – | inconclusive: 29.1 µM [cytotoxic, single point]
42 | COc1ccc(NC(=O)CN(C)C(=O)C2CC(=O)N(Cc3ccc(C)cc3)C2)cc1 (configuration not stated) | inactive: -11.2% | –

Random excerpt: two compounds from above.
Row | SMILES | activity change, negative = cytotoxic | Potency
38 | Cc1cc(-c2ccccc2)n2nc(C)c(-c3ccccc3)c2n1 | – | inconclusive: 23.1 µM [cytotoxic, single point]
23 | CCOc1ccc(N(C(=O)c2ccc(OC)cc2)S(=O)(=O)c2ccc3c(c2)n(C)c(=O)n3C)cc1 | – | inconclusive: 29.1 µM [cytotoxic, single point]
